Assay in all cases: co-IP
In assay [1] the target is GFP-CCDC93 wild-type (human) (UniProt Q567U6).
Assay [2] deals with GFP-CCDC93-S631A (human) (UniProt Q567U6).
The target in assay [3] is GFP-COMMD4-L41R (human) (UniProt Q9H0A8).
Assay [4] has as its target GFP-COMMD4 wild-type (human) (UniProt Q9H0A8).

Protein sequences, listed by entry. Tags and fused reporters are not part of them. Lines headed by an entry give the natural chain unless they say otherwise; changes in a name come on top.
UniProt Q567U6: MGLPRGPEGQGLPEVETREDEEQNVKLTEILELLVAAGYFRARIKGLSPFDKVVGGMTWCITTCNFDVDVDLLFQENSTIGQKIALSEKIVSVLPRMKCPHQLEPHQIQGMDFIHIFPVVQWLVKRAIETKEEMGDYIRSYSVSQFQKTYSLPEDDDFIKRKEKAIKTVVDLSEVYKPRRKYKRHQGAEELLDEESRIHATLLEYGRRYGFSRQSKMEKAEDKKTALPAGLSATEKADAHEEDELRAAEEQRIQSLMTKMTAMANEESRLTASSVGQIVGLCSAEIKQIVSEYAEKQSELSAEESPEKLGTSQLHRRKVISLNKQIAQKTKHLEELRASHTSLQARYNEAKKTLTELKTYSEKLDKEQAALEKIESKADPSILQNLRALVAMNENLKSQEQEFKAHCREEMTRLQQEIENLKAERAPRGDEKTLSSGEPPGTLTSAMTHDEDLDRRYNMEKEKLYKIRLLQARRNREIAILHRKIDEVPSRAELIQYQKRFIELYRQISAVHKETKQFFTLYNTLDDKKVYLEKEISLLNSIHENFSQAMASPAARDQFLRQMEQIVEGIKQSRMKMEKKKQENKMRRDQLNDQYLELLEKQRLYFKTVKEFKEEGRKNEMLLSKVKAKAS
UniProt Q9H0A8: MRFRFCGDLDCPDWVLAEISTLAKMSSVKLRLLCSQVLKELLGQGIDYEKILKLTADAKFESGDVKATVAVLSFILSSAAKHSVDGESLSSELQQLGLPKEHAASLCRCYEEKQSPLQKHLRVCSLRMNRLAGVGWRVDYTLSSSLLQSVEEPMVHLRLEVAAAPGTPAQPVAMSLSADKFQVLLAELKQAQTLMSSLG
UniProt O60826: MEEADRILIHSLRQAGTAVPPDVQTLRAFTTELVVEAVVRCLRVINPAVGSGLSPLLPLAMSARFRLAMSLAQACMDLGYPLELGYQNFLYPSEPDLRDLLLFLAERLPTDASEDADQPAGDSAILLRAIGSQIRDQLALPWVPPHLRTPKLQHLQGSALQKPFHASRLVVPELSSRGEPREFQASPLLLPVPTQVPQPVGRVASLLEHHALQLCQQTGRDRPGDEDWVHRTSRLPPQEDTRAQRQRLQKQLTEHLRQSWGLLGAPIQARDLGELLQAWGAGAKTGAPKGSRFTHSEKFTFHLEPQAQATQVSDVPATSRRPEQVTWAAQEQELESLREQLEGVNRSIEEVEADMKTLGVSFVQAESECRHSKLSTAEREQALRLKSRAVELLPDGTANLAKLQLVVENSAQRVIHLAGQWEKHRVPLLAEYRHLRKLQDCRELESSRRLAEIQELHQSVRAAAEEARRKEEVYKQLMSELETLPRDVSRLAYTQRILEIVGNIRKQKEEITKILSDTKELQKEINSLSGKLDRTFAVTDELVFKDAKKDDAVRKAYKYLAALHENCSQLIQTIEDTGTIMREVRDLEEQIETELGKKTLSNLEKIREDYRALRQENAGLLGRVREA
UniProt Q8N668: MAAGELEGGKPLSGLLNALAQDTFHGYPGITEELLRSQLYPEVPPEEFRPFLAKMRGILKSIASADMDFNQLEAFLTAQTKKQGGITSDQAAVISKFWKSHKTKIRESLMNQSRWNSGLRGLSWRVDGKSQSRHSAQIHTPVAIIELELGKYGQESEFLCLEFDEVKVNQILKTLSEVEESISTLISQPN
UniProt Q86X83: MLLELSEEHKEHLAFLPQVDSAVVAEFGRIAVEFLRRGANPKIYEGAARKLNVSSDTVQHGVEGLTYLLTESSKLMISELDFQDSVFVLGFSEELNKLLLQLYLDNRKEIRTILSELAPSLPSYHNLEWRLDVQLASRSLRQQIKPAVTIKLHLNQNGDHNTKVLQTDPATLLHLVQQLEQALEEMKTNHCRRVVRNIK
UniProt Q9UBI1: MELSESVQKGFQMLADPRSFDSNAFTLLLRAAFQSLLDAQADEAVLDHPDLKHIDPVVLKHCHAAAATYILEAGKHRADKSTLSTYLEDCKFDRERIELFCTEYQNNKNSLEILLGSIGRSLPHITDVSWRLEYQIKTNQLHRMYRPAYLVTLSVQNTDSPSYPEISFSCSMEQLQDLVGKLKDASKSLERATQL
UniProt Q9GZQ3: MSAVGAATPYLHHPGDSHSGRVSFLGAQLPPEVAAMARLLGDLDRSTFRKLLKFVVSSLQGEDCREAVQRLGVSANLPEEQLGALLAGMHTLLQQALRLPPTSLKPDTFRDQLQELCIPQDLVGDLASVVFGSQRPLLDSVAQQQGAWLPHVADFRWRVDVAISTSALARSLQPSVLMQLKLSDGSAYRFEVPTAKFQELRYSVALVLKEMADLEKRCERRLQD
UniProt Q7Z4G1: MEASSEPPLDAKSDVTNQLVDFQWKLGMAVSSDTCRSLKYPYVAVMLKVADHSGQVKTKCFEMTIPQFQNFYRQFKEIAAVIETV
UniProt Q86VX2: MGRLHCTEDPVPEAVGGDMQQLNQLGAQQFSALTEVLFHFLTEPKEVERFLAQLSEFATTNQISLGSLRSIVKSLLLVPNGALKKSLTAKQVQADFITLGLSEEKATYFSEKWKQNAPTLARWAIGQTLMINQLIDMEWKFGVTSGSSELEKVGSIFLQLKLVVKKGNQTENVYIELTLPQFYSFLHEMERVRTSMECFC
UniProt Q9NX08: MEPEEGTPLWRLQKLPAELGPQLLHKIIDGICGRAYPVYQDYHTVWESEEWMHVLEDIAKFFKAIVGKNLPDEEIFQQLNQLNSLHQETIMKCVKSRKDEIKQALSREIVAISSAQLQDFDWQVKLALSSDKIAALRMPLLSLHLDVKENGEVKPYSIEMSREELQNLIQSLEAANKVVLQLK
UniProt Q9P000: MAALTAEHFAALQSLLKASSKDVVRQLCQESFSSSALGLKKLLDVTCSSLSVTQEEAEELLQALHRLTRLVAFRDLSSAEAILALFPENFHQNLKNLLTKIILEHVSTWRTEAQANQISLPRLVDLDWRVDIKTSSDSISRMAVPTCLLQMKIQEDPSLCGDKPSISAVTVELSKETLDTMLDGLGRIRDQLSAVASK
UniProt Q9Y6G5: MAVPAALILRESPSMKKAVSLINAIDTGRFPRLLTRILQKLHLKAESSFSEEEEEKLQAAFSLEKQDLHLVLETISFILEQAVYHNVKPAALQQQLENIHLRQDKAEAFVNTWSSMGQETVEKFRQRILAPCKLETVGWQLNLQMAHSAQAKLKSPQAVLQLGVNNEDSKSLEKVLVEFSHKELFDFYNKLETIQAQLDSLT
UniProt Q8TCE6: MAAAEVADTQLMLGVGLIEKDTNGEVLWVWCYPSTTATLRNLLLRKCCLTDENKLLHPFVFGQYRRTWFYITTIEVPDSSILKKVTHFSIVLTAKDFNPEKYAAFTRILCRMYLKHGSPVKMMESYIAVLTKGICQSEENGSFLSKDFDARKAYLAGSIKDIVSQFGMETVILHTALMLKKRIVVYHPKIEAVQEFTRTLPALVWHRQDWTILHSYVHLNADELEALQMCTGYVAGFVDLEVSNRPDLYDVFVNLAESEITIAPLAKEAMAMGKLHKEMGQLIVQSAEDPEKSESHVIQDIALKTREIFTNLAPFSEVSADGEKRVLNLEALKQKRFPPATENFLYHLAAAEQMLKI

This passage reports binding results from article doi:10.1101/2024.08.17.24311658.

These are yes or no findings as the source states them, for the method shown. Binding seen in cells or lysates may run through a third protein. Some entries that bind do so weakly or less than the wild type.

Consider “CCC complex (from UniProt O60826;Q567U6;Q8N668;Q86X83;Q9UBI1;Q9H0A8;Q9GZQ3;Q7Z4G1;Q86VX2;Q9NX08;Q9P000;Q9Y6G5)”, for which the binding result in assay [1] and in assay [2] was “binds” each time.
Take DENND10 (from UniProt Q8TCE6 1-357): the binding result in assay [3] and in assay [4] was “binds” each time.
